# No constants are given. Whether binding was seen depends on the method and setting. Some entries that bind do so weakly or less than the wild type.
# By UniProt entry, the sequences of proteins in these tests, tags left out. Residues count along the entry.
# UniProt Q9WFX3, residues 18-529: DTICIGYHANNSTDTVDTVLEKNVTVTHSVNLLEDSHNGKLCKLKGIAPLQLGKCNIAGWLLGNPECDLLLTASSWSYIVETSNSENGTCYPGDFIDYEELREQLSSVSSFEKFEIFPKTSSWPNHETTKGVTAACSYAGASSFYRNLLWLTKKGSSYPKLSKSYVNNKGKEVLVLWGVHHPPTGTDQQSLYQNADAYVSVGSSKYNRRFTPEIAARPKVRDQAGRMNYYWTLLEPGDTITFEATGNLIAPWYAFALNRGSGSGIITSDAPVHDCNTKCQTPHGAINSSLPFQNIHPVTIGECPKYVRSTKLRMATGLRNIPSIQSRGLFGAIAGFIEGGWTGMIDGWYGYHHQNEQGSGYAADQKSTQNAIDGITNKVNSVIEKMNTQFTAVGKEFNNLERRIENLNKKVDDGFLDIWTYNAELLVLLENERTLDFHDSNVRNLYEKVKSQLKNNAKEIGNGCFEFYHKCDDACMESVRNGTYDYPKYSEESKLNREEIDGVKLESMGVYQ
# Target: H1 hemagglutinin of influenza A/South Carolina/1/18 (H1N1) (influenza A virus H1N1 A/South Carolina/1/18) (UniProt Q9WFX3)
# Experiment: IgG ELISA on coated hemagglutinin
row,Binder,binding
1,"Antibody 2 (antibody, V domains shown) VH: QVQLVQSGAEVKKPGSSVKVSCKTSGGTFSSYAVTWVRQAPGQGLEWMGGIIGMFGTTNYAQKFQGRVTITADELTSTAYMELSSLRSEDTAVYYCARGSYYYESSLDYWGRGTL VL: ETTLTQSPATLSVSPGERATLSCRASQSVSRNLAWYQQKPGQAPRLLIYGASSRATGIPDRFSGSGSGTDFTLTISRLEPEDFAVYYCQQYGSSSITFGQGTRLEIKR",binds
2,"Antibody 3 (antibody, V domains shown) V domain 1: EVQLVQSGAEVKKPGSSVKVSCKTSGGTFSSYAVTWVRQAPGQGLEWMGAIIGMFGTTNYAQKFQGRVTITADELTSTAYMELSSLRSDDTAVYYCARGSYYYESSLDYWGKGTL V domain 2: QSVLTQPPSVSGAPGQRVTISCGGSRSNIGAGYDVHWYQQFPGTAPKVVIYGNNNRPSGVPDRFSGSKSGTSASLAITGLQAEDEANYYCQSYDTNLGGSIFGGGTQVTVL",binds

# Reference: patent US20100040635A1
